Experimental data taken from publication PMC13318124.
These are yes or no findings as the source states them, for the method shown. In cells and extracts the contact can be indirect. Some entries that bind do so weakly or less than the wild type.

Amino acid sequences for entries named in this document (tags omitted). Residues count along the entry.
UniProt O35516, residues 26-2473: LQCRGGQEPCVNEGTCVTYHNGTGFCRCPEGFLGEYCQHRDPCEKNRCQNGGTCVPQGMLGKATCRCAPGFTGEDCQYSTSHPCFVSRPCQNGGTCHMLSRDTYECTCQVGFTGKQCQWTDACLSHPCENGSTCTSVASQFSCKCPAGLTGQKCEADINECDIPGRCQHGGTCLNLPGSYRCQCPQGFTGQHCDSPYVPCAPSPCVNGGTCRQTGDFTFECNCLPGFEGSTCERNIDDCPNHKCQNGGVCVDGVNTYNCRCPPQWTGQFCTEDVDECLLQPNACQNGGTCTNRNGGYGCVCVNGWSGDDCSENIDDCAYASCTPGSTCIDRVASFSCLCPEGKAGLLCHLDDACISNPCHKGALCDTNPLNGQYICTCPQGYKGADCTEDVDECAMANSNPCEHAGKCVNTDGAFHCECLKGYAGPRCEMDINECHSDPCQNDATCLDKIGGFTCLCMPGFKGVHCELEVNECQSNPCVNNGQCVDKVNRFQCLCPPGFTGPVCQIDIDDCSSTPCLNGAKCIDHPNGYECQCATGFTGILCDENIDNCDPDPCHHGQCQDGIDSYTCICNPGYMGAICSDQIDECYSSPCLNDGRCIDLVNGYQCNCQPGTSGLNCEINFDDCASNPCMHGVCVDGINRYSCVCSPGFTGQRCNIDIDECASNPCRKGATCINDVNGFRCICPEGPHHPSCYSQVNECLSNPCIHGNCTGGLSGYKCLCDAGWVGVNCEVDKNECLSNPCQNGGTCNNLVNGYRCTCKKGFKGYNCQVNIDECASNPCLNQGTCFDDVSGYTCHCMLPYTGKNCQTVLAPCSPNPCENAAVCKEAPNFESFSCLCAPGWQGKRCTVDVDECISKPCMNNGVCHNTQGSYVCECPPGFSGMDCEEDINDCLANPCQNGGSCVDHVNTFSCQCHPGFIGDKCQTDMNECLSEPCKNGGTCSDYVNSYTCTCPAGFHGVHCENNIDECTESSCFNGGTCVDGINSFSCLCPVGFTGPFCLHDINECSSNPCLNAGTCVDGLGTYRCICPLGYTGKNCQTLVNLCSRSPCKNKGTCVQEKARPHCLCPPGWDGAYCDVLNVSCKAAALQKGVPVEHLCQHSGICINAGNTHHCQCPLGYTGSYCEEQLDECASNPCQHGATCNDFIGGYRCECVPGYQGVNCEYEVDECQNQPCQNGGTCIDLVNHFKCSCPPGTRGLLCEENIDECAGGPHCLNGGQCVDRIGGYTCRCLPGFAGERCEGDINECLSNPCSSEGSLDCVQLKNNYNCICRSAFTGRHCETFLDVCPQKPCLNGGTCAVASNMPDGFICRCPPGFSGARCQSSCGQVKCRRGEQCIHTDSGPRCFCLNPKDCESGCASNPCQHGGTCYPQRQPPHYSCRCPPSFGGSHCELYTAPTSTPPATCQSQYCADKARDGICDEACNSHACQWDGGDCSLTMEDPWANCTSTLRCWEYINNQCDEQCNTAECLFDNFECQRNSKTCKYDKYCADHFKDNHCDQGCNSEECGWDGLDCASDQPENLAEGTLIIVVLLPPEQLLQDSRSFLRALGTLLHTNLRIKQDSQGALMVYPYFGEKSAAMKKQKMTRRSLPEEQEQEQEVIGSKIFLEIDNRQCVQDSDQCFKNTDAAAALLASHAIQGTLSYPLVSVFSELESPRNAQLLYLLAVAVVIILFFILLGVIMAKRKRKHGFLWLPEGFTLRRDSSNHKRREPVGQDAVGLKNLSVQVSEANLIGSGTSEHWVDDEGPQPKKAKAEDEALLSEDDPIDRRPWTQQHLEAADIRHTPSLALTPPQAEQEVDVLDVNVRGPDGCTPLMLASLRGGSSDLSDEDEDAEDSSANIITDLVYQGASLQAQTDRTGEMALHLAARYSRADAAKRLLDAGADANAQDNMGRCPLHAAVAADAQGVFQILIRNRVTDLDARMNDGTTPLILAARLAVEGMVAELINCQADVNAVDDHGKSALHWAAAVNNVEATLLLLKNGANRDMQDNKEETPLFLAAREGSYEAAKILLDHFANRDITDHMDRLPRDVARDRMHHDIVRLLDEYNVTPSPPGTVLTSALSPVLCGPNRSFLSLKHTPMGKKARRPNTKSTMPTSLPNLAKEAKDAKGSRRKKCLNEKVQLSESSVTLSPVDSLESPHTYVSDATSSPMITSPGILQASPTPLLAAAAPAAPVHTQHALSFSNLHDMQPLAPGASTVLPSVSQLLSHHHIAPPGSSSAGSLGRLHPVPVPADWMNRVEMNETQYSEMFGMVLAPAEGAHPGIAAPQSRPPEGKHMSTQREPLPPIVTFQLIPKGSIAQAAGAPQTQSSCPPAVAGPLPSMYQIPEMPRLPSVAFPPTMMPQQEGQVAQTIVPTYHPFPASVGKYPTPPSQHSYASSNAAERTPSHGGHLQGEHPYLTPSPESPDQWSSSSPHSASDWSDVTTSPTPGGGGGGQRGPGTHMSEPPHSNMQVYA
UniProt Q61982, residues 40-2318: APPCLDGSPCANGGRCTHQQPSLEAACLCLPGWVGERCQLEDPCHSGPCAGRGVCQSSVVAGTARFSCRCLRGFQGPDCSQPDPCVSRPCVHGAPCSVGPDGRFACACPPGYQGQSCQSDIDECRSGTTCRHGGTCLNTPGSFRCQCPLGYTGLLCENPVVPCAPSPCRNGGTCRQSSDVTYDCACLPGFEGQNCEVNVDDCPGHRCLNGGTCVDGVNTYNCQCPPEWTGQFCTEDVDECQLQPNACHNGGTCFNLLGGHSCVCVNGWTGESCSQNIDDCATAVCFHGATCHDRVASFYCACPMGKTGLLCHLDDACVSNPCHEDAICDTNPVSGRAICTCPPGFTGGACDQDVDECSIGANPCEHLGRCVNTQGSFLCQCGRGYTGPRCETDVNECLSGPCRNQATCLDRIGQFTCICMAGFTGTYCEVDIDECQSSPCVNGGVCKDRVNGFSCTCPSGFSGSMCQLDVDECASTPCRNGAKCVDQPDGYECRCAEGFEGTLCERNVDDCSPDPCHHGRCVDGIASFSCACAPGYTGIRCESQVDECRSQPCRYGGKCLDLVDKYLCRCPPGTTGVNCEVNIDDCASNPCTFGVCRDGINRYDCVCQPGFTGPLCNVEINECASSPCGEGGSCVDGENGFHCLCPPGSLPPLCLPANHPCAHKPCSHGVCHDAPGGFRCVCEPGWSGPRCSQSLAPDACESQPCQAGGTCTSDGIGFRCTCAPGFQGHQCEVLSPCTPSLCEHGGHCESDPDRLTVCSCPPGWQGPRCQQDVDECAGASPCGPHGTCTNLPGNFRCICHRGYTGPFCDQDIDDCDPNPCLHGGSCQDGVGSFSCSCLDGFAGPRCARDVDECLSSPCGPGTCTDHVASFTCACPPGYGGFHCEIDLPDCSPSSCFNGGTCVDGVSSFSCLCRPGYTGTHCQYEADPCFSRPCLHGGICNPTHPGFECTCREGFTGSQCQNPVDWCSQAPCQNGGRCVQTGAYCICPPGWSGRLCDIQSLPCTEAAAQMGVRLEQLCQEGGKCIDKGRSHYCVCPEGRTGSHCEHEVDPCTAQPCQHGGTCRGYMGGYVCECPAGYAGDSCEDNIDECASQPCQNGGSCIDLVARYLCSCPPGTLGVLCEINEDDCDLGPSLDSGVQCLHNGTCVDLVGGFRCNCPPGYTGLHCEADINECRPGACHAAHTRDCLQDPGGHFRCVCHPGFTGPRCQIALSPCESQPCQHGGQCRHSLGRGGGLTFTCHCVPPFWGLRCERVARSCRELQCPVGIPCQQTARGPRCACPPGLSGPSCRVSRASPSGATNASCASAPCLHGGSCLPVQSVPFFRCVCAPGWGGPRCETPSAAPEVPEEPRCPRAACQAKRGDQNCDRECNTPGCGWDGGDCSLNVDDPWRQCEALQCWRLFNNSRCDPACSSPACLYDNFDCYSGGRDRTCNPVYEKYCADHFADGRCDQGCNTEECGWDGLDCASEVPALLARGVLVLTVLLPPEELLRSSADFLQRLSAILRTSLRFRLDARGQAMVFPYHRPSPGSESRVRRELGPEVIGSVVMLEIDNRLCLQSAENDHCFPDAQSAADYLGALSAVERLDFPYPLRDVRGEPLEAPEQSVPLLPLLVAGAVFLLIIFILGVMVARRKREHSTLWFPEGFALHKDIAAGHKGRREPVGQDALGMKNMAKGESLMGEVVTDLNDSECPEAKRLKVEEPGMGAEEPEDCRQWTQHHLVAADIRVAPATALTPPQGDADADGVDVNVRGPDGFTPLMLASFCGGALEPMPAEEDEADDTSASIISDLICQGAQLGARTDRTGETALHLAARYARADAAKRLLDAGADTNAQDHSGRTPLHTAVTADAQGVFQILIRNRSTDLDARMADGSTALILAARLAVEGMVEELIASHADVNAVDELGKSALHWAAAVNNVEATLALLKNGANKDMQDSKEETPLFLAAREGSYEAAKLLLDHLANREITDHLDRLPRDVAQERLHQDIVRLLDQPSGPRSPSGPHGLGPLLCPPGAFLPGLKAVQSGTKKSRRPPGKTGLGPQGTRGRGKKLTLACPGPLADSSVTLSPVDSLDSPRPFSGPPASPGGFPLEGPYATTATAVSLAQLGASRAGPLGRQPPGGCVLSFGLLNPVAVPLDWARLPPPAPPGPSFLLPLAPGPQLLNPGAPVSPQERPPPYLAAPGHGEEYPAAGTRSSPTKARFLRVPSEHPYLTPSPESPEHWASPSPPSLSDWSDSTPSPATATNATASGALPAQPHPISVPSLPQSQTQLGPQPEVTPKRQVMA
UniProt Q9QYE5, residues 24-1247: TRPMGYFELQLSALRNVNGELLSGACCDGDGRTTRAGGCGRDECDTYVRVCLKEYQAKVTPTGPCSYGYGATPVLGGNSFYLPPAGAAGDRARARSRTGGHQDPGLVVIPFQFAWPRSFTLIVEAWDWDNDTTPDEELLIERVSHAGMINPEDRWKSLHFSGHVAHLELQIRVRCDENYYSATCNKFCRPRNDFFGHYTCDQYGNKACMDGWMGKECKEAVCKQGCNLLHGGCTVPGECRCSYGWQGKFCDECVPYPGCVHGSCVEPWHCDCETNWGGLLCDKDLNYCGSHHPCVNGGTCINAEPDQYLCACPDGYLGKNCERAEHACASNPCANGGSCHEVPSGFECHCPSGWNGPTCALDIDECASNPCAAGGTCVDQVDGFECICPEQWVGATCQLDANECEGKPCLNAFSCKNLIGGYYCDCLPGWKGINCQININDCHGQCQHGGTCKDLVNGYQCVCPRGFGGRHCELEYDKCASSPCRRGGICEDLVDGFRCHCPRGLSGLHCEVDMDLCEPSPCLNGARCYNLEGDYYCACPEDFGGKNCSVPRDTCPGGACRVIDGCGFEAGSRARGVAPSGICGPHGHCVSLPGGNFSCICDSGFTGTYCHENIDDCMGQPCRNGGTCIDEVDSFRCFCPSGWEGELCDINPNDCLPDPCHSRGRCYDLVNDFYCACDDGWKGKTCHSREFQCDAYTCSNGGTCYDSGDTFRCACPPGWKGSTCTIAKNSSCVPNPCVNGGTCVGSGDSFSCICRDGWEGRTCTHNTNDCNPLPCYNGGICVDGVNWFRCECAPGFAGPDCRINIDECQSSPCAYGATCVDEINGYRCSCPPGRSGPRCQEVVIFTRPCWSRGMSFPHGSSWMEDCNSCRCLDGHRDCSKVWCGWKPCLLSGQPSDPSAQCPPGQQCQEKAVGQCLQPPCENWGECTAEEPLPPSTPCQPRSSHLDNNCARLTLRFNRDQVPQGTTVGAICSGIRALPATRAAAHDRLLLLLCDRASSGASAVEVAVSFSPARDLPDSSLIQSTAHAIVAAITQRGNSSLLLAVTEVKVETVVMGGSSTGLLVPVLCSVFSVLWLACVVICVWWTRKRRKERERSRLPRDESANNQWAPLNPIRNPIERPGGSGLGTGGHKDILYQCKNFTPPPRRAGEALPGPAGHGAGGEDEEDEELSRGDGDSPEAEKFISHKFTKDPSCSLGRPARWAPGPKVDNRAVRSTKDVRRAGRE

Tests used:
Test in all cases: proximity ligation; DuoLink in situ PLA in MuSCs fixed with 4% PFA and permeabilised with PBS + 0.2% Triton X-100; anti-JAG2 with anti-NOTCH1, anti-NOTCH2 or anti-NOTCH3 antibodies, anti-rabbit minus and anti-mouse plus probes; control without antibodies
[1] = target: NOTCH2, mouse, in muscle stem cells (MuSCs) (mouse (endogenous in MuSCs)) (UniProt O35516)
[2] = target: NOTCH1, mouse, in muscle stem cells (MuSCs) (mouse (endogenous in MuSCs)) (UniProt Q01705)
[3] = target: NOTCH3, mouse, in muscle stem cells (MuSCs) (mouse (endogenous in MuSCs)) (UniProt Q61982)

Measured: binding

JAG2 (JAGGED2), mouse, in muscle stem cells (MuSCs) (from UniProt Q9QYE5 24-1247) (ligand)
binds: all assays above
